Experimental data published in patent US6140309A, “Vasoactive effects and free radical generation by β-amyloid peptides” (University of South Florida, priority 1996, dated 2000).
At least one structure is not confirmed: it was looked up by name or label, or the drawing left a doubt.

Tested on: blood vessel
Test: Viability and endothelium test of blood vessel rings: phenylephrine constriction, acetylcholine relaxation
Assay type: cell-based, rat
Settings: vessel with or without endothelium
Procedure: Freshly excised rat and porcine blood vessels were placed in Kreb's bicarbonate buffer equilibrated with 5% CO2 in O2. The buffer composition consisted of 118.2 mM NaCl, 4.7 mM KCl, 1.2 mM MgSO4, 2.5 mM CaCl2, 1.2 mM NaH2 PO4, 23 mM NaHCO3 and 11.2 mM glucose. After cleaning the vessels free of fat and other adhering tissues, the vessels were cut into ring segments of approximately 3mm in length. Care was taken not to damage the intimal surface.
The endothelium was removed from some preparations by rubbing the inside of the lumen with a metal spatula for six to ten seconds and subsequent rinsing with buffer. The removal of endothelium was confirmed by testing for relaxation to acetylcholine [Furchgott and Zawadzki, 1980].
The blood vessel preparations were mounted on stainless steel hooks attached to a force-displacement transducer and equilibrated under the optimum tension of 1.3 g for a period of sixty minutes in a tissue bath (10 ml) containing oxygenated (5% CO2 in O2) Kreb's buffer at 37° C. The buffer was changed every fifteen minutes. After equilibration for sixty minutes the viability of the blood vessel with intact endothelium was established by constricting the blood vessel using phenylephrine ([…]). This dose of phenylephrine elicited 80% of the maximum response. […] The vessel preparations were washed for fifteen minutes before various manipulations as described below.

SMILES: CC(=O)OCC[N+](C)(C)C [Acetylcholine, acetylcholine]
- relaxation of preconstricted vessels by acetylcholine: relaxed preconstricted vessels only when endothelium was present
